Out of some 340,000 compounds screened, about 6,200 (1.8%) were called active. This list was built around the results that the source calls inconclusive (neither active nor inactive); the mix of calls is not that of the screen. Calls follow the shape of the dose curve; as a rule, active = well fitted activation curve with a large enough effect; inconclusive = small, poorly fitted or top-dose-only effect; inactive = no such curve, though single readings can be large or run the other way. Potencies of inconclusive entries are doubtful fits and often do not repeat.
Experiment: A quantitative high throughput screen for small molecules that induce DNA re-replication in SW480 colon adenocarcinoma cells. Also: nearly all actives have a fitted effect of over 55% in size.
Settings: Hoechst DNA content imaging, 48 h; series mostly up to 46.1 µM
Outline: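 250 cells/well; 23 nL cpd via pin tool; 48 hr, 37 C, 5% CO2; Hoechst 40 min; imager read of total nuclear intensity, ex 405/em 500-530 nm.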
Potency is read from the fitted curve at half-maximal effect.

Compound | Potency
CCN(C(=O)CSc1cc(C)c2ccc(OC)cc2n1)C1CCS(=O)(=O)C1 (stereo unspecified) | inactive
CCN(CC)CCNC(=S)Nc1ccc(Cl)cc1 | inconclusive: 6.51 µM [activator, single point]
Cc1cccc(N2CCN(C(=O)c3c(C)nn(Cc4ccccc4Cl)c3C)CC2)c1C | inconclusive: 18.4 µM [activator, single point]
COC(=O)c1[nH]c2cc(OC)c(OC)cc2c1/C=N/Nc1ccccc1 | inconclusive: 16.4 µM [activator, single point]
CCCCC1(Cc2cccc([N+](=O)[O-])c2)C(=O)N(c2ccccc2)N(c2ccccc2)C1=O | inconclusive: 31.6 µM [activator, single point]
O=C(CN1CCC(NC(=O)c2ccc(F)cc2)CC1)NCc1ccccc1F | inactive
O=C(c1ccco1)N1CCN(Cc2cc(=O)c(OCc3ccccc3)co2)CC1 | inconclusive: 0.92 µM [activator, partial curve, poor fit]
O=C(c1cc(COc2ccc(F)cc2Cl)on1)N1CC2C[C@@H]3CC1C[C@H](C2)C3 | inactive
Cc1c(Cl)cccc1NC(=S)N1CCN(c2ncccn2)CC1 | inconclusive: 0.184 µM [activator, partial curve, poor fit]
COc1ccc(C2/C=C\CN(Cc3ccc(N(C)C)cc3)CC(=O)N2Cc2ccc(F)cc2)cc1 (stereo unspecified) | inconclusive: 2.91 µM [activator, partial curve]
COc1ccc(N2CCN(CC(=O)NCc3ccccc3)CC2)cc1 | inconclusive: 0.116 µM [activator, full curve, poor fit]
CSCCC(NS(=O)(=O)c1ccccc1F)C(=O)Nc1cccc(C)n1 (stereo unspecified) | inactive
CCNc1nc(-c2cc3ccccc3o2)cs1 | inconclusive: 14.6 µM [activator, partial curve]
COc1ccccc1CNCc1cccc(Oc2ccccc2)c1 | inactive
NS(=O)(=O)c1ccc(CCNC(=O)Cc2ccc(Cl)cc2)cc1 | inactive
O=S(=O)(Nc1cc(Sc2cccc3cccnc23)c(O)c2ccccc12)c1ccc(F)cc1 | active: 0.731 µM
N#CC(C(=O)NCc1ccccc1)c1nc2ccccc2nc1N1CCCC1 (stereo unspecified) | inconclusive: 20.6 µM [activator, single point]
CCN1CCC(O)(/C=C/c2ccc(C)cc2)C(C(=O)/C=C/c2ccc(C)cc2)C1 (stereo unspecified) | inactive
CN(C(=S)Oc1ccc(C(=O)Nc2ccccc2)cc1)c1ccccc1 | inconclusive: 18.4 µM [activator, partial curve, poor fit]
NC(=O)c1ccc(CN2CCC(Cc3ccccc3)CC2)cc1 | inconclusive: 6.51 µM [activator, partial curve, poor fit]
COC(=O)N1C(=O)[C@@](c2ccc(OC)cc2)(C(C)C)N1C(=O)OC | active: 20.6 µM
O=C1C(=O)c2ccccc2C(O)=C1c1cccc([N+](=O)[O-])c1 | active: 23.1 µM
Cc1onc(-c2ccccc2Cl)c1C(=O)NC(=S)Nc1ccc(C(C)(C)C)cc1 | inactive

Compound | Potency
CC(C)c1ccc(/C=C/C(=O)n2nnc3ccccc32)cc1 | inconclusive: 18.4 µM [activator, single point]
CCN(CC)S(=O)(=O)c1ccc(NC(=O)c2cccnc2Cl)c(NC(=O)c2cccnc2Cl)c1 | inconclusive: 29.1 µM [activator, single point]
C/C(=N\O)C(=O)C(CN1CCCCC1)CN1CCCCC1 | inconclusive: 20.6 µM [activator, single point]
C=CCNC(=S)N/N=C/c1ccc(-c2ccc(OC)cc2)o1 | inconclusive: 29.1 µM [activator, partial curve, poor fit]
CCCCn1c(Nc2ccc(OC)cc2)nc2ccccc21 | inactive
CCc1ccc(-c2csc(NC(=O)C3=NN(c4ccccc4)C(=O)CC3)n2)cc1 | inactive
OCCNc1nc2ccccc2nc1NCCO | inactive
COc1n[nH]c(C(=O)Nc2cc(Cl)ccc2Cl)c1[N+](=O)[O-] | inconclusive: 29.1 µM [activator, single point]
CN(C)CCNc1nc(-c2ccccc2)c2c(c1C#N)CC(C)(C)OC2 | inactive
Cc1ccccc1CS(=O)(=O)c1ccc(C(=O)N2CCC(C)CC2)cc1[N+](=O)[O-] | inactive
N#CCC(=O)Nc1ccc(C(=O)OCc2ccccc2Oc2ccccc2)cc1 | inconclusive: 16.4 µM [activator, single point]
Cc1ccc(-c2csc(NC(=O)c3ccno3)n2)cc1 | inactive
CCOc1ncccc1C(=O)Nc1ccc(C)c(S(=O)(=O)N2CCCCCC2)c1 | inactive
CCCCOc1nc2c(c(=O)n(C)c(=O)n2C)n1C | inconclusive: 20.6 µM [activator, single point]
O=C(COc1ccccc1)Nc1ccccc1Cl | inconclusive: 14.6 µM [activator, single point]
COc1ccc(NC(=O)COC(=O)Cc2ccc(Br)cc2)cc1 | inconclusive: 0.146 µM [activator, full curve, poor fit]
O=C(CN1CCOCC1)N1CCN(c2nnc(-c3ccccc3)c3ccccc23)CC1 | inactive
COc1ccc(C(=O)/C=C/C(=O)N(CC(=O)NC2CCCCC2)Cc2ccc(F)cc2)c(O)c1 | inconclusive: 16.4 µM [activator, single point]
Cc1cc(C(=O)COC(=O)c2ccco2)c(C)n1Cc1ccco1 | inconclusive: 1.16 µM [activator, single point]
CN(C)CCC(=O)N1C/C(=C/c2ccccc2)C(=O)/C(=C\c2ccccc2)C1 | inconclusive: 0.731 µM [activator, full curve, poor fit]
COc1ccc(/C=C2\Oc3cc(OCC(=O)N4CC(O)C[C@H]4C(=O)O)ccc3C2=O)c(OC)c1OC (stereo partly specified) | inconclusive: 0.326 µM [activator, partial curve, poor fit]
COc1cc(OC)c2c(-c3cccc(-c4ccc(C(C)=O)cc4)c3)cc(=O)oc2c1 | active: 4.11 µM
CC1CN(S(=O)(=O)c2cccc(-c3csc(-c4ccccc4)n3)c2)CC(C)O1 (stereo unspecified) | inconclusive: 11.6 µM [activator, partial curve, poor fit]

A stretch of the results above:
Compound | Potency
CCCCOc1nc2c(c(=O)n(C)c(=O)n2C)n1C | inconclusive: 20.6 µM [activator, single point]
O=C(COc1ccccc1)Nc1ccccc1Cl | inconclusive: 14.6 µM [activator, single point]
